From paper PMC13086964, “USP7 deubiquitinase stabilizes FAN1 to support DNA crosslink repair and suppress CAG repeat expansion” (Nature Communications, 2026)

Chains of the proteins cited; added tags and fusions are not shown.
UniProt Q9Y2M0: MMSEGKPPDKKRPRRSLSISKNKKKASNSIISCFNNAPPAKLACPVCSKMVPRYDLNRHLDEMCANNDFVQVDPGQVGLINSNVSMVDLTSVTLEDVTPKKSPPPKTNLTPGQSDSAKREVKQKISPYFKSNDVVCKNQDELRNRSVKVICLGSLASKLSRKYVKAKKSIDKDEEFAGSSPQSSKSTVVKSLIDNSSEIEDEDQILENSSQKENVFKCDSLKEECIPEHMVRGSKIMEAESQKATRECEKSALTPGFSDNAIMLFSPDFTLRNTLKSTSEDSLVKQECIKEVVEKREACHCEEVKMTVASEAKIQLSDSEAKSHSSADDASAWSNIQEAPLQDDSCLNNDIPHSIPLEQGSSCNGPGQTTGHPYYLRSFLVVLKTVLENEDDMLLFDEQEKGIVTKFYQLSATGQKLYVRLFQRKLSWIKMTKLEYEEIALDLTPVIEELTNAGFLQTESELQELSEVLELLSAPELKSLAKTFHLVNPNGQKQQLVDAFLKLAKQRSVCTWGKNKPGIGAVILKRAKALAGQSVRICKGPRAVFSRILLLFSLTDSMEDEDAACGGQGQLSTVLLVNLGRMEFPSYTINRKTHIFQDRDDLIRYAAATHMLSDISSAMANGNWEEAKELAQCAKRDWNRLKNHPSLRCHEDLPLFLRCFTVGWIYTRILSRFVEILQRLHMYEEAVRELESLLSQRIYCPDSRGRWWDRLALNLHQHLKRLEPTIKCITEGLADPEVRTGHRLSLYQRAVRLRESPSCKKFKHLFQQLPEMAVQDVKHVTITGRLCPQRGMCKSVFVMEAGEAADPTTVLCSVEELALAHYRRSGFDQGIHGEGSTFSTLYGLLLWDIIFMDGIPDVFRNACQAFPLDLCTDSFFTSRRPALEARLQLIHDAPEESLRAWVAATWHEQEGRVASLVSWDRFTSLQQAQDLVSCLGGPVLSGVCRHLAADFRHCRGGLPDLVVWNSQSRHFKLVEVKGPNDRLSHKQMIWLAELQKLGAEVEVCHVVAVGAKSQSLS

Target: GFP-FAN1 wild-type (wt), full-length (human) (UniProt Q9Y2M0)
Test: affinity purification with mass spectrometry; GFP-Trap agarose on nuclei-enriched, Benzonase-treated lysates of HEK293 Flp-In T-REx eGFP-FAN1 cells (parental HEK293 as control); IP buffer 50 mM Tris-HCl pH 7.5, 100 mM NaCl, 0.1% NP40; 1 h, 4 °C; LC-MS/MS, n = 3

binding: binds
B1: endogenous USP48 (HEK293 cells) (enzyme, UniProt Q86UV5 1-1035)
chain: MAPRLQLEKAAWRWAETVRPEEVSQEHIETAYRIWLEPCIRGVCRRNCKGNPNCLVGIGEHIWLGEIDENSFHNIDDPNCERRKKNSFVGLTNLGATCYVNTFLQVWFLNLELRQALYLCPSTCSDYMLGDGIQEEKDYEPQTICEHLQYLFALLQNSNRRYIDPSGFVKALGLDTGQQQDAQEFSKLFMSLLEDTLSKQKNPDVRNIVQQQFCGEYAYVTVCNQCGRESKLLSKFYELELNIQGHKQLTDCISEFLKEEKLEGDNRYFCENCQSKQNATRKIRLLSLPCTLNLQLMRFVFDRQTGHKKKLNTYIGFSEILDMEPYVEHKGGSYVYELSAVLIHRGVSAYSGHYIAHVKDPQSGEWYKFNDEDIEKMEGKKLQLGIEEDLAEPSKSQTRKPKCGKGTHCSRNAYMLVYRLQTQEKPNTTVQVPAFLQELVDRDNSKFEEWCIEMAEMRKQSVDKGKAKHEEVKELYQRLPAGAEPYEFVSLEWLQKWLDESTPTKPIDNHACLCSHDKLHPDKISIMKRISEYAADIFYSRYGGGPRLTVKALCKECVVERCRILRLKNQLNEDYKTVNNLLKAAVKGSDGFWVGKSSLRSWRQLALEQLDEQDGDAEQSNGKMNGSTLNKDESKEERKEEEELNFNEDILCPHGELCISENERRLVSKEAWSKLQQYFPKAPEFPSYKECCSQCKILEREGEENEALHKMIANEQKTSLPNLFQDKNRPCLSNWPEDTDVLYIVSQFFVEEWRKFVRKPTRCSPVSSVGNSALLCPHGGLMFTFASMTKEDSKLIALIWPSEWQMIQKLFVVDHVIKITRIEVGDVNPSETQYISEPKLCPECREGLLCQQQRDLREYTQATIYVHKVVDNKKVMKDSAPELNVSSSETEEDKEEAKPDGEKDPDFNQSNGGTKRQKISHQNYIAYQKQVIRRSMRHRKVRGEKALLVSANQTLKELKIQIMHAFSVAPFDQNLSIDGKILSDDCATLGTLGVIPESVILLKADEPIADYAAMDDVMQVCMPEEGFKGTGLLGH

Results are given in words; binding and its absence hold for the method and conditions named. Binding seen in cells or lysates may run through a third protein. These calls come from enrichment with a bait or labelling near it, and not all partners need be listed.
